Laboratory results published in PubChem BioAssay AID493014 (National Center for Advancing Translational Sciences (NCATS), 2011).
This is one part of the list. The main result of the screen is listed elsewhere. These columns were measured beside it and carry no call. The list favours compounds with an active or inconclusive main result. Words in brackets tell the shape of the fitted curve; partial curves, single points and poor fits give uncertain potencies.

Assay: qHTS Assay to Find Inhibitors of Chronic Active B-Cell Receptor Signaling
Settings: ABC-DLBCL IkBa-CBG/CBR reporter, luminescence ratio (green luciferase fused to IkBa over red control in TMD8 lymphoma cells), 4 h
Outline: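 Compounds up to 46 uM were incubated four hours with TMD8 cells whose green CBG68 luciferase is fused to IkappaBalpha; red CBR luminescence normalised the signal, and concentration-effect curves were fitted to fusion, red and ratio data.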

[1] = measured here: CBR red luminescence, cell number
[2] = measured here: IkBa-CBG green luminescence

Row | Compound | AC50 [1] | AC50 [2]
1 | COc1ccc(Nc2cc(Nc3cccc(OC)c3)ncn2)cc1 | 20 µM [falling, partial curve, poor fit] | –
2 | CC(=O)Nc1ccc(S(=O)(=O)Oc2ccc(/C=C3\SC(N)=NC3=O)cc2)cc1 | 14.1 µM [rising, partial curve, poor fit] | –
3 | Cc1ccccc1-n1c([C@@H]2C[C@H]2c2ccccc2)n[nH]c1=S | 6.31 µM [falling, full curve, poor fit] | –
4 | O=C(CSc1cccc2cccnc12)Nc1ccc(S(=O)(=O)N2CCOCC2)cc1 | 10 µM [falling, single point] | –
5 | O=C(NCc1ccon1)C1CCC(=O)N(CCc2ccc(Cl)cc2)C1 (configuration not stated) | 12.6 µM [rising, partial curve, poor fit] | –
6 | COc1cccc(NC(=O)c2ccc(CN3CCOCC3)cc2)c1 | 20 µM [falling, single point] | –
7 | COc1cc(CN2CCN(C(=O)c3cccc4ccccc34)CC2)cc(OC)c1OC | 5.62 µM [rising, partial curve, poor fit] | –
8 | C=CCC1C=C(C)CC(CC=C)N1 (configuration not stated) | 12.6 µM [rising, partial curve, poor fit] | –
9 | COc1ccc([N+](=O)[O-])c(OC)c1C(=O)NC(=O)Nc1nc(C)cc(C)n1 | 0.708 µM [falling, full curve, poor fit] | –
10 | CCOc1cccc2sc(N(CCCN(C)C)C(=O)c3ccc(S(=O)(=O)N(C)c4ccccc4)cc3)nc12 | 35.5 µM [falling, single point] | –
11 | CCn1cc(CN2CCc3c([nH]c4ccccc34)C2c2cccc(OC)c2)c(C)n1 (configuration not stated) | 35.5 µM [falling, single point] | –
12 | COc1ccc(C2C(C)C3(O)CC(C#N)(C(=O)N3)C2(C#N)C#N)cc1 (configuration not stated) | 12.6 µM [rising, partial curve, poor fit] | –
13 | CCc1cccc(OCC(=O)Nc2ccc(C(=O)O)cc2NC(=O)COc2cccc(CC)c2)c1 | 35.5 µM [falling, single point] | –
14 | CCc1nnc(NC(=O)CSc2nnc(-c3ccccc3O)o2)s1 | 7.94 µM [falling, partial curve] | –
15 | N#Cc1nc(COc2ccc(Br)cc2)oc1N1CCCC1 | 15.8 µM [rising, partial curve, poor fit] | –
16 | CCOC(=O)C/C(C)=N/NC(=O)c1cccs1 | 25.1 µM [falling, single point] | –
17 | Cc1ccc(NC(=O)C(=Cc2ccc(C(=O)O)cc2)C(=O)Nc2ccc(C)cc2C)c(C)c1 | 1.12 µM [falling, full curve, poor fit] | –
18 | Cc1ccc(NC(=O)CNCc2cccs2)cc1Br | 1.78 µM [rising, partial curve, poor fit] | –
19 | COc1cc2c(cc1OC)CN(C(=O)CCOc1ccccc1)CC2 | 35.5 µM [rising, single point] | –
20 | Cc1nc2ccc(NC(=O)c3sccc3C)cc2s1 | 7.94 µM [falling, partial curve] | –

In the list so far, eight have sulfur:
Row | Compound | AC50 [1] | AC50 [2]
2 | CC(=O)Nc1ccc(S(=O)(=O)Oc2ccc(/C=C3\SC(N)=NC3=O)cc2)cc1 | 14.1 µM [rising, partial curve, poor fit] | –
3 | Cc1ccccc1-n1c([C@@H]2C[C@H]2c2ccccc2)n[nH]c1=S | 6.31 µM [falling, full curve, poor fit] | –
4 | O=C(CSc1cccc2cccnc12)Nc1ccc(S(=O)(=O)N2CCOCC2)cc1 | 10 µM [falling, single point] | –
10 | CCOc1cccc2sc(N(CCCN(C)C)C(=O)c3ccc(S(=O)(=O)N(C)c4ccccc4)cc3)nc12 | 35.5 µM [falling, single point] | –
14 | CCc1nnc(NC(=O)CSc2nnc(-c3ccccc3O)o2)s1 | 7.94 µM [falling, partial curve] | –
16 | CCOC(=O)C/C(C)=N/NC(=O)c1cccs1 | 25.1 µM [falling, single point] | –
18 | Cc1ccc(NC(=O)CNCc2cccs2)cc1Br | 1.78 µM [rising, partial curve, poor fit] | –
20 | Cc1nc2ccc(NC(=O)c3sccc3C)cc2s1 | 7.94 µM [falling, partial curve] | –

Next part.

Row | Compound | AC50 [1] | AC50 [2]
21 | CCOC(=O)N1CCN(c2cc(NCCC(=O)O)c3c4c(onc24)-c2ccccc2C3=O)CC1 | 20.6 µM [falling, single point] | –
22 | O=C(c1cccc(F)c1)n1nnc2ccccc21 | 0.731 µM [rising, full curve, poor fit] | –
23 | CC(C)=C1C2CCC1C(C(=O)NCCc1ccccc1)C2C(=O)O (configuration not stated) | 18.4 µM [rising, single point] | –
24 | O=C(CCN1C(=O)/C(=C/C=C/c2ccccc2)SC1=S)Nc1ccccn1 | 0.794 µM [falling, full curve] | –
25 | Cc1c(NC(=O)c2c(N)n(-c3ccccc3)c3nc4ccccc4nc23)c(=O)n(-c2ccccc2)n1C | 4.11 µM [rising, single point] | –
26 | Cc1ccc(CC(=O)Nc2ccc3c(c2)N(C)C(=O)c2ccccc2S3)cc1 | 22.4 µM [falling, single point] | –
27 | CCCCCc1nnc(NC(=O)OCCC)s1 | 4.61 µM [rising, full curve, poor fit] | –
28 | O=C(c1ccc(Cl)cc1)C(CN1CCCCC1)c1ccccc1 (configuration not stated) | 22.4 µM [falling, single point] | –
29 | COC(=O)c1ccc(OCC(=O)c2ccc(C)c(C)c2)cc1 | 0.146 µM [falling, full curve, poor fit] | –
30 | O=C(Nc1nccs1)c1ccc(-c2ccc(Cl)cc2Cl)o1 | – | 3.66 µM [rising, full curve, poor fit]
31 | Cc1ccsc1C(=O)OCC(=O)Nc1sccc1C(N)=O | 2.82 µM [falling, full curve] | –
32 | Cc1cc(NC(=O)c2cc(-c3ccncc3)nc3ccccc23)ccc1Br | 7.31 µM [rising, partial curve, poor fit] | –
33 | Cc1cc(O)ccc1N/C=C1\CCCC1=O | 23.1 µM [falling, single point] | –
34 | CC(C)(C)c1ccc(C(=O)NCCC(=O)NCc2ccco2)cc1 | 35.5 µM [falling, single point] | 22.4 µM [rising, single point]
35 | CCc1ccccc1OCC(=O)Nc1ccc(F)c(S(=O)(=O)N2CCOCC2)c1 | 1.84 µM [falling, partial curve, poor fit] | –
36 | C[C@@H]1CN([C@@H](C)CO)C(=O)c2cc(NS(=O)(=O)c3cccs3)ccc2O[C@H]1CN(C)Cc1ccc(C(F)(F)F)cc1 | 6.51 µM [falling, single point] | –
37 | O=C(Cc1csc(N2CCOCC2)n1)N/N=C/c1ccc(F)cc1 | 6.51 µM [falling, single point] | –
38 | COc1ccc(Cc2nnc(NC(=O)Nc3ccccc3F)s2)cc1OC | 15.8 µM [rising, single point] | –
39 | Cc1cccc(N2CCN(C(=O)c3ccc(CS(=O)(=O)c4ccccc4C)o3)CC2C)c1 (configuration not stated) | 35.5 µM [falling, single point] | 3.55 µM [falling, full curve]
40 | Cn1cnc(C(=O)NCc2ccc(CNC(=O)OC(C)(C)C)cc2)c1C(=O)NCc1ccc(CNC(=O)OC(C)(C)C)cc1 | 0.731 µM [rising, full curve, poor fit] | –
